Measured values from PubChem BioAssay AID493014 (National Center for Advancing Translational Sciences (NCATS), 2011).
The whole screen tested about 340,000 compounds, of which about 170 (0.05%) were called active. This list was built around the results that the source calls inconclusive (neither active nor inactive); the mix of calls is not that of the screen. Calls follow the shape of the dose curve; as a rule, active = well fitted inhibition curve with a large enough effect in the signal ratio, with a control signal flat (not every such curve was filed as active); inconclusive = small, poorly fitted or top-dose-only effect, or effect the other way, or a change in a side signal; inactive = flat fitted curve, though single readings scatter; the % refers to the signal ratio. A potency beside an inconclusive call is a rough fit, not a confirmed value.
Potency is read from the fitted curve at half-maximal effect.

Assay: qHTS Assay to Find Inhibitors of Chronic Active B-Cell Receptor Signaling;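 as to activity change, negative = inhibition: plate controls were basal doxycycline-induced cells for no effect and cells given 10 µM MG132 for full effect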
Settings: ABC-DLBCL IkBa-CBG/CBR reporter, luminescence ratio (green luciferase fused to IkBa over red control in TMD8 lymphoma cells), 4 h; activity change, negative = inhibition: at 46.1 µM (top of the series) unless noted
In short: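 TMD8 ABC-DLBCL cells carrying doxycycline-inducible green luciferase fused to IkappaBalpha plus unfused red luciferase were exposed to compounds (up to 46 uM) for 4 hrs at 37C. Activity came from the overlap-corrected green/red luminescence ratio.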
In the case of Nn1cnc2cc3ccccc3cc2c1=O, the Potency is reported as inconclusive: 10 µM [falling, partial curve]. In the case of CCc1ccc(/C=C2/Sc3ccccc3N(CC(=O)NCCCOC)C2=O)cc1, the Potency is reported as inconclusive: 5.62 µM [rising, partial curve]. For CCOC(=O)C1C(=O)NCC2CCCC21 (stereo not drawn), the activity change, negative = inhibition was inconclusive: -9.71%. For C=CCSC1=N/C(=C/c2ccsc2)C(=O)N1c1ccccc1, the activity change, negative = inhibition was inconclusive: 8.13%. In the case of Cc1onc(-c2ccccc2)c1C(=O)NC(=S)NNC(=O)c1ccc(O)cc1, the Potency is reported as inconclusive: 20.6 µM [falling, partial curve]. For CCc1nnc(NC(=O)CSc2ccc(-c3nc4ccc(C)cc4[nH]3)cn2)s1, the activity change, negative = inhibition was inconclusive: 9.56%. For CCOC(=O)c1sc2nc3n(c(=O)c2c1C)CCC(C)CC3 (stereo not drawn), the Potency was inconclusive: 2.91 µM [rising, full curve, poor fit]. With C=CCC[C@H](Cc1ccc(F)cc1)C(=O)OC[C@@H](Cc1c[nH]c2ccccc12)NC(=O)[C@@H](CC=C)CC(=O)NCCO the activity change, negative = inhibition was inconclusive: -3.87%. With COc1cc(C#Cc2c(-c3cncn3C)n(C)c3ccc(-c4cnc(OC)nc4)cc23)cc(OC)c1 the activity change, negative = inhibition was inconclusive: 4.43%. For CCOC(=O)c1c(NC(=S)Nc2cccnc2)sc(C)c1C, the “activity change, negative = inhibition” value was inactive: 15.6%. For COc1ccc(C2NC3=C(CCCC3)C(C#N)(C#N)C2(C#N)C#N)cc1 (stereo not drawn), the Potency was inconclusive: 28.2 µM [falling, single point]. In the case of NC(=O)C1CCN(C(=O)N2c3ccccc3Sc3ccccc32)CC1, the “activity change, negative = inhibition” value is reported as inactive: -17.1%. With O=C(Nc1ccccc1)c1nc[nH]c1C(=O)NCCNC(=O)c1[nH]cnc1C(=O)Nc1ccccc1 the “activity change, negative = inhibition” value was inactive: 0.676%. With CCCCNCc1cc2ccccc2o1 the activity change, negative = inhibition was inconclusive: 16.2%. For C[C@H](NC(=O)c1nc[nH]c1C(=O)N1CCN(C(=O)OC(C)(C)C)CC1)C(=O)OCc1ccccc1, the “activity change, negative = inhibition” value was inactive: -5.64%. In the case of COc1cc2c(cc1OC)CN(C(=O)c1ccc(-c3ccccc3)cc1)CC2, the Potency is reported as inconclusive: 25.1 µM [falling, single point]. For CCc1ccc(CNCc2cccnc2)cc1, the activity change, negative = inhibition was inconclusive: 15.6%. In the case of COC(=O)c1ccc(/C=N/Nc2nc(-c3ccccc3)cs2)cc1, the Potency is reported as inconclusive: 16.4 µM [falling, single point]. For COc1ccc(NC(=S)Nc2cc(C(F)(F)F)ccc2F)cc1, the activity change, negative = inhibition was inconclusive: 8.69%. In the case of O=C(COc1nsnc1N1CCOCC1)Nc1ccccc1Cl, the Potency is reported as inconclusive: 12.6 µM [falling, partial curve]. For O=C(Nc1ccccc1OC(F)F)c1ccc(Br)o1, the activity change, negative = inhibition was inconclusive: -0.341%. In the case of CC(=O)Nc1ccc(-c2csc(NCc3ccco3)n2)cc1, the Potency is reported as inconclusive: 16.4 µM [falling, single point]. With COc1ccc2nc(NC(=O)C3CCCN(S(=O)(=O)c4cccs4)C3)sc2c1 (stereo not drawn) the activity change, negative = inhibition was inconclusive: -21.6%. With CC1=CC(C)(C)N=C(Nc2nc(C)c3cc(C)cc(C)c3n2)N1 the Potency was inconclusive: 15.8 µM [falling, single point]. With CCOC(=O)Cc1nc2ccccc2o1 the Potency was inconclusive: 12.6 µM [falling, partial curve, poor fit]. With O=C(Nc1ccccn1)c1ccc(Br)s1 the activity change, negative = inhibition was inconclusive: -13.3%. For O=c1[nH]c(C2CCN(S(=O)(=O)c3ccc(S(=O)(=O)NC4CC4)cc3)CC2)nc2c1nnn2Cc1ccc(F)cc1, the activity change, negative = inhibition was inconclusive: -0.487%. With CCOC(=O)C1CCN(C(=O)CSc2c3c(nc4ccccc24)CCC3)CC1 the “activity change, negative = inhibition” value was inactive: 1.88%. In the case of Nc1nc(-c2ccco2)nc(N2CCCCC2)n1, the activity change, negative = inhibition is reported as inconclusive: 7.94%. For COc1ccc(C=Nc2cccnc2N)cc1, the Potency was inconclusive: 35.5 µM [rising, partial curve, poor fit]. With COc1ccc(/C=C/C(=O)N2CCN(c3ccccn3)CC2)c(OC)c1OC the activity change, negative = inhibition was inconclusive: -1.25%. In the case of CCOc1ccc(-c2cccc(NC(=O)COc3ccccc3)c2)nn1, the activity change, negative = inhibition is reported as inconclusive: -10.7%. With COc1ccc(NC(=O)Nc2ccccc2F)c([N+](=O)[O-])c1 the “activity change, negative = inhibition” value was inactive: -1.71%. With Cc1ccc(CNC(=O)Cc2c(C(=O)O)c(C)cn2C)cc1 the “activity change, negative = inhibition” value was inactive: 12.5%. In the case of COc1ccc(C(=O)c2sc(NC(C)C)nc2N)cc1OC, the Potency is reported as inconclusive: 31.6 µM [rising, partial curve, poor fit]. In the case of Cc1cccc(-n2ncc3c(N4CCOCC4)ncnc32)c1, the Potency is reported as inconclusive: 20.6 µM [falling, single point]. For COc1cccc(NC(=O)CSc2nnc(NC(=O)C3CC3)s2)c1, the “activity change, negative = inhibition” value was inactive: -11.2%. For CN(C)/C=C/C(=O)c1ccc(Oc2ncccn2)cc1, the activity change, negative = inhibition was inconclusive: -9.17%. With COc1cccc(CN(Cc2cccnc2)S(=O)(=O)c2ccc(-n3cnnn3)c(C)c2)c1OC the activity change, negative = inhibition was inconclusive: 3.57%. For COCCn1c(SC(C(=O)Nc2cc(C)ccc2OC)c2ccccc2)nnc1-c1ccc(Cl)cc1 (stereo not drawn), the activity change, negative = inhibition was inconclusive: 2.93%. For Cc1ccc(SCc2c(C#N)c3ccccc3n2C)cc1, the activity change, negative = inhibition was inconclusive: -6.15%. With O=C1[C@@H]2C(Cc3ccc(O)cc3)NC3(C(=O)Nc4ccc(F)cc43)[C@@H]2C(=O)N1c1ccccc1 (stereo partly drawn) the activity change, negative = inhibition was inconclusive: 5.97%. In the case of C=CCNCc1ccccc1[N+](=O)[O-], the activity change, negative = inhibition is reported as inconclusive: -7.08%. With CCCN(C(=O)Cc1csc(-c2ccccc2)n1)C1CCS(=O)(=O)C1 (stereo not drawn) the activity change, negative = inhibition was inconclusive: -0.468%. For O=C(NNC(=O)c1cc(Br)ccc1O)c1csc(N2CCOCC2)n1, the Potency was inconclusive: 18.4 µM [falling, single point]. In the case of Clc1cccc(-c2ccc(/C=N/n3cnnc3)o2)c1, the activity change, negative = inhibition is reported as inconclusive: 8.22%. In the case of O=C1CC(SCc2nc3ccccc3[nH]2)C(=O)N1c1ccc(F)cc1 (stereo not drawn), the activity change, negative = inhibition is reported as inconclusive: -25.9%. For CCn1nc(C)c(NC(=O)CCCSc2nc(-c3ccco3)cc(C(F)(F)F)n2)c1C, the “activity change, negative = inhibition” value was inactive: -3.25%. With COc1ccc(N2CCN(C(CNC(=O)c3cccs3)c3ccco3)CC2)cc1 (stereo not drawn) the activity change, negative = inhibition was inconclusive: 4.68%. In the case of C=CC[C@@H](CC(=O)N(CCO)Cc1ccccc1)C(=O)N[C@@H](COC(=O)[C@@H](CC=C)Cc1ccc(F)cc1)Cc1ccccc1, the activity change, negative = inhibition is reported as inconclusive: -1.48%. In the case of CCOc1cc(Cn2c(-c3ccc(O)c(OCC)c3)nc3ccccc32)ccc1O, the activity change, negative = inhibition is reported as inconclusive: -10.3%. For C=CS(=O)c1sc(Cl)c(N2CCOCC2)c1[N+](=O)[O-] (stereo not drawn), the activity change, negative = inhibition was inconclusive: 10.2%. In the case of CCOC(=O)N1N=C(c2ccccc2)CC1(O)C(F)(F)F (stereo not drawn), the Potency is reported as inconclusive: 11.2 µM [falling, partial curve, poor fit]. With Cc1ccc(CCNC(=O)CN2C(=O)COc3ccc(S(=O)(=O)N4CCCC4)cc32)cc1 the activity change, negative = inhibition was inconclusive: 5.65%. In the case of Cn1cccc1C(C#N)(CC#N)c1cccc(F)c1C#N (stereo not drawn), the “activity change, negative = inhibition” value is reported as inactive: -15.8%. For CCN(CC)C(=O)c1sc(NC(=O)c2ccoc2C)c(C(=O)OC)c1C, the “activity change, negative = inhibition” value was inactive: -1.69%. With Cc1ccc2[nH]c3c(N4CCOCC4)ncnc3c2c1 the activity change, negative = inhibition was inconclusive: 11.2%. For CCOc1ccc2ccccc2c1/C=N/n1cncn1, the activity change, negative = inhibition was inconclusive: -1.28%. With C=C(C(=O)O)C(CCCCCC)C(=O)O (stereo not drawn) the “activity change, negative = inhibition” value was inactive: -0.0097%. In the case of Cn1nc(OCCOc2ccccc2)ccc1=O, the activity change, negative = inhibition is reported as inconclusive: 0.444%. In the case of CCN(CC)S(=O)(=O)c1ccc2nc(NC(=O)c3cccs3)sc2c1, the activity change, negative = inhibition is reported as inconclusive: 7.01%. With Cc1ccc(Cl)cc1N1CCN(C(=O)c2cc3c(=O)n(C)c4ccccc4c3n2C)CC1 the “activity change, negative = inhibition” value was inactive: 1.37%. With COc1ccc(NC(=O)COc2ccc(S(=O)(=O)N3CCOCC3)cc2C)cc1OC the activity change, negative = inhibition was inconclusive: 2.68%. In the case of Cc1ccc(CCNC(=O)C2CCC(=O)N2CCc2ccccc2)cc1 (stereo not drawn), the activity change, negative = inhibition is reported as inconclusive: 2.92%. With CCc1cccc(NC(=O)CCCN2C(=O)C(c3ccccc3)Oc3cccnc32)c1 (stereo not drawn) the Potency was inconclusive: 14.1 µM [falling, partial curve]. In the case of Cc1ccc(/C(=N\O)c2oc3c(C)c4oc(=O)cc(C)c4cc3c2C)cc1, the Potency is reported as inconclusive: 3.66 µM [falling, partial curve, poor fit]. For C=CCn1c(C)c(C(C)=O)c(N2CCOCC2)nc1=S, the activity change, negative = inhibition was inconclusive: 15.7%. With COC(=O)CS(=O)(=O)c1cccc2cccnc12 the “activity change, negative = inhibition” value was inactive: -0.652%. With N#CC1=C(N)S[C@H](C(=O)C23CC4CC(CC(C4)C2)C3)[C@H]1c1ccncc1 the activity change, negative = inhibition was inconclusive: -2.13%. For COc1ccc(NC(=O)CN(C)C(=O)C(C)Oc2ccc(Br)cc2)cc1 (stereo not drawn), the “activity change, negative = inhibition” value was inactive: -1.5%. With CCCC(=O)Nc1nc(-c2ccc(Cl)s2)cs1 the activity change, negative = inhibition was inconclusive: 1.05%. With COc1cccc(CN(C)C(=O)CNC(=O)c2sc3ccccc3c2Cl)c1OC the activity change, negative = inhibition was inconclusive: -9.77%. In the case of Fc1cccc(CN2CCN(Cc3nc(CCc4ccccc4)no3)CC2)c1, the activity change, negative = inhibition is reported as inconclusive: 14.7%. With Clc1ccc2nc(C3CCN(Cc4ccccc4)CC3)[nH]c2c1 the “activity change, negative = inhibition” value was inactive: 7.65%. For NC(=O)c1ccsc1NC(=O)c1ccc([N+](=O)[O-])o1, the activity change, negative = inhibition was inconclusive: -11.6%. In the case of COC(=O)c1cnn(-c2ccc(F)cc2F)c1/C=N/NC(=S)NC(C)(C)C, the “activity change, negative = inhibition” value is reported as inactive: -15.2%. With COc1ccc(Nc2nc(C(=O)N3CCc4cc(OC)c(OC)cc4C3)cs2)cc1 the activity change, negative = inhibition was inconclusive: -17%. With CC(=O)c1ccc(NC(=O)Nc2ccc(S(=O)(=O)N3CCCC3)cc2)cc1 the “activity change, negative = inhibition” value was inactive: -0.179%. For O=C(O)CC1(CC(=O)Nc2ccc(Br)cc2)CCCCC1, the Potency was inconclusive: 10 µM [falling, partial curve, poor fit]. In the case of Cc1cc(C)nc(N2CCCC(C(=O)Nc3ccc4c(c3)OCCO4)C2)n1 (stereo not drawn), the activity change, negative = inhibition is reported as inconclusive: -0.0933%. For O=C(Nc1cccc(F)c1)c1cc(S(=O)(=O)NCCC2=CCCCC2)ccc1F, the activity change, negative = inhibition was inconclusive: 11.9%. With CCc1cc(=O)oc2cc3occ(C)c3cc12 the activity change, negative = inhibition was inconclusive: 4.35%. For O=C(CN1C(=O)/C(=C\c2ccc(C(F)(F)F)cc2)Sc2ccccc21)NCc1ccco1, the activity change, negative = inhibition was inconclusive: 8.07%.
